Data taken from the supplement of paper PMC10849652.
The list shows a part of the results. Residues, ends and D or L forms follow the SMILES beside them. *: point of attachment. Cbz = O=C(OCc1ccccc1)*

Amino acid sequences for entries named in this document (tags omitted). A change or cut given only in a name is not applied to a line headed by its entry.
UniProt Q96DX4: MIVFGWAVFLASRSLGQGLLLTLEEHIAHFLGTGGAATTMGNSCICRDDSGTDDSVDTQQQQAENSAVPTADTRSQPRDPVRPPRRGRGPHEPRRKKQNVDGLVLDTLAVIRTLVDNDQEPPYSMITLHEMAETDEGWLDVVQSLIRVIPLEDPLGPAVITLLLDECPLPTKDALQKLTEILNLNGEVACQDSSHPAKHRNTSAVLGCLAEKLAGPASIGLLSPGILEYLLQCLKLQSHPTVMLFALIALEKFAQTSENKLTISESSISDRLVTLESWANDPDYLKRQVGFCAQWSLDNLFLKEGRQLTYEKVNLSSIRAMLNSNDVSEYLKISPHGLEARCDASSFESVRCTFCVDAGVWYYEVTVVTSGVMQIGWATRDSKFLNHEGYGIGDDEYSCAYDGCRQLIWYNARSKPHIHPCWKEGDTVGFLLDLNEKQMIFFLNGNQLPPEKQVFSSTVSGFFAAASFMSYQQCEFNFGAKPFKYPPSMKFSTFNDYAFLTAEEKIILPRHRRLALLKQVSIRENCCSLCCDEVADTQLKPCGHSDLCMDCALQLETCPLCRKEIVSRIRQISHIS
UniProt Q9NX18: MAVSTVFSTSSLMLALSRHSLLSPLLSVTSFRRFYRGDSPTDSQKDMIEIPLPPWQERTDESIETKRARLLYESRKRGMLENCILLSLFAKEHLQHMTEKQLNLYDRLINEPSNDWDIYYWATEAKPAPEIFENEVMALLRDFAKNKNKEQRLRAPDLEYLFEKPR
UniProt Q14151: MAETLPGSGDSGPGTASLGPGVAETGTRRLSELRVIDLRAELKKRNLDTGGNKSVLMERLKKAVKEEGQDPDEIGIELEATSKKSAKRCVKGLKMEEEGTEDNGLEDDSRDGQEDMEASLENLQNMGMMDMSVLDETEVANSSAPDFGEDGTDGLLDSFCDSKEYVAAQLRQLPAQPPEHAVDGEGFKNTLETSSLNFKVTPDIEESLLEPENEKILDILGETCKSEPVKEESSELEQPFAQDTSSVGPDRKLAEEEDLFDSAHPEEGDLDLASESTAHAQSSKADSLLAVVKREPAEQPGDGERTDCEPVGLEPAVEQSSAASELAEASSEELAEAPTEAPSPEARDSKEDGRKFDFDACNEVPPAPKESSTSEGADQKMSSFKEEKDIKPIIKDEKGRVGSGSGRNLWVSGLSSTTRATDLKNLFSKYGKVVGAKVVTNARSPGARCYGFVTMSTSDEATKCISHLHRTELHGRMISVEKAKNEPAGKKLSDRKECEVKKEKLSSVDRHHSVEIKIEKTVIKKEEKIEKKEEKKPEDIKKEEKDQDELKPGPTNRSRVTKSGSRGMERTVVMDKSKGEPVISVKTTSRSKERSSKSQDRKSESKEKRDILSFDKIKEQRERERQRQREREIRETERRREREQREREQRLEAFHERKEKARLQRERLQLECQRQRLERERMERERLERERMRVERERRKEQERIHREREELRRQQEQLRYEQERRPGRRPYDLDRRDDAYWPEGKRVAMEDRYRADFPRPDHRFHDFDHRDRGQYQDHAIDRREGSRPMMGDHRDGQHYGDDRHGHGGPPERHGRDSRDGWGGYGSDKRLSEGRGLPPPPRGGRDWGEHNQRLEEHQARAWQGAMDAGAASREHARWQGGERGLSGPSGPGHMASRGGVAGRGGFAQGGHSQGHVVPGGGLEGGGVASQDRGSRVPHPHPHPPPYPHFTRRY
UniProt Q99584: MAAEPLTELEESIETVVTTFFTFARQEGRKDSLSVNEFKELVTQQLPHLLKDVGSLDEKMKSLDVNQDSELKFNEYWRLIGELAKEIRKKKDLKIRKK
UniProt Q9BWG6: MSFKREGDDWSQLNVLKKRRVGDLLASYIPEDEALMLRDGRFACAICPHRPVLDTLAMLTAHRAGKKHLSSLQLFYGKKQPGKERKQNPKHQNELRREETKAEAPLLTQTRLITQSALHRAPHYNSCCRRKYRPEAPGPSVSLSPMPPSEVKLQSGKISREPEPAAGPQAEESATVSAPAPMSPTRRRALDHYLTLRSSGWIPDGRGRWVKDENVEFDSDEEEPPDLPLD
UniProt Q9Y6Y8: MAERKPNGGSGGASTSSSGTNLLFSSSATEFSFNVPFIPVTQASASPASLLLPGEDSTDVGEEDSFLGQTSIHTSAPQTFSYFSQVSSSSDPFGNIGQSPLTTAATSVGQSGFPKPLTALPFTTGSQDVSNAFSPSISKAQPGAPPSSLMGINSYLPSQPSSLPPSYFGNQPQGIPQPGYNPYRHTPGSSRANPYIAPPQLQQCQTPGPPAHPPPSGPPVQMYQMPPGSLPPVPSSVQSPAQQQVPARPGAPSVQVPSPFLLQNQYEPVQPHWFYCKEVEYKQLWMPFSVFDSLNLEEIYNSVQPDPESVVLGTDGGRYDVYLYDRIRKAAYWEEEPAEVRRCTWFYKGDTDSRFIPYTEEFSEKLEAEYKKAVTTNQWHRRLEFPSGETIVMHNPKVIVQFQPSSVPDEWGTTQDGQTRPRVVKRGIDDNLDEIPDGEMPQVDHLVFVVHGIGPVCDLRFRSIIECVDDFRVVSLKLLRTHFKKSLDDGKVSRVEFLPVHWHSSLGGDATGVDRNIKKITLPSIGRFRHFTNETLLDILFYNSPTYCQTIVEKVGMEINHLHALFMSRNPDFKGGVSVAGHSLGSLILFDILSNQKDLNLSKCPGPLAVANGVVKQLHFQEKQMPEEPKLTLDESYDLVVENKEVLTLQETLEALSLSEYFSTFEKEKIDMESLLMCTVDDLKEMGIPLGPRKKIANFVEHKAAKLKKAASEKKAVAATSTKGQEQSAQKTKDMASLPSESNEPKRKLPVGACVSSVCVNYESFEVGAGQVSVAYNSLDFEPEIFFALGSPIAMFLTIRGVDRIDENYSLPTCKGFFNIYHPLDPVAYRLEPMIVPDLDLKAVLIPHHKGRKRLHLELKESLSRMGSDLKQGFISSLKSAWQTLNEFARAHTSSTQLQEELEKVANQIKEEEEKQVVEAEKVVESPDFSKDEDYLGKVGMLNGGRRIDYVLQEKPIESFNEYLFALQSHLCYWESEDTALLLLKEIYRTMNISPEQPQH
UniProt Q9HB40: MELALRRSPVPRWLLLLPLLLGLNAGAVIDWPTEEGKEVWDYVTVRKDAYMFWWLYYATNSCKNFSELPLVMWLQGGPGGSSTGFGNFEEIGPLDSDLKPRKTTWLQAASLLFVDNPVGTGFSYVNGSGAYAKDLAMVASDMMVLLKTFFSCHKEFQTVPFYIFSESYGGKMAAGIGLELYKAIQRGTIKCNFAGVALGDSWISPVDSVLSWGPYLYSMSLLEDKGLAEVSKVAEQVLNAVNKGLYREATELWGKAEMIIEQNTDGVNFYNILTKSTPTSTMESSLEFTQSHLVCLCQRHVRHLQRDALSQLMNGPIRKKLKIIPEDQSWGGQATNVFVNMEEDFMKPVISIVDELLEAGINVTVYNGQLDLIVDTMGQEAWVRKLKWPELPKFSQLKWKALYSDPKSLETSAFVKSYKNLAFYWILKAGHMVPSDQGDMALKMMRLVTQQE
UniProt Q99643: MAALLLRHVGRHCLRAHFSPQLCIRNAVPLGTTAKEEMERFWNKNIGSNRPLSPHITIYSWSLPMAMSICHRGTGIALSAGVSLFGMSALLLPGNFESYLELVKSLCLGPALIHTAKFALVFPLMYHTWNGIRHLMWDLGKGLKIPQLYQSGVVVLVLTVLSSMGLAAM
UniProt O15027: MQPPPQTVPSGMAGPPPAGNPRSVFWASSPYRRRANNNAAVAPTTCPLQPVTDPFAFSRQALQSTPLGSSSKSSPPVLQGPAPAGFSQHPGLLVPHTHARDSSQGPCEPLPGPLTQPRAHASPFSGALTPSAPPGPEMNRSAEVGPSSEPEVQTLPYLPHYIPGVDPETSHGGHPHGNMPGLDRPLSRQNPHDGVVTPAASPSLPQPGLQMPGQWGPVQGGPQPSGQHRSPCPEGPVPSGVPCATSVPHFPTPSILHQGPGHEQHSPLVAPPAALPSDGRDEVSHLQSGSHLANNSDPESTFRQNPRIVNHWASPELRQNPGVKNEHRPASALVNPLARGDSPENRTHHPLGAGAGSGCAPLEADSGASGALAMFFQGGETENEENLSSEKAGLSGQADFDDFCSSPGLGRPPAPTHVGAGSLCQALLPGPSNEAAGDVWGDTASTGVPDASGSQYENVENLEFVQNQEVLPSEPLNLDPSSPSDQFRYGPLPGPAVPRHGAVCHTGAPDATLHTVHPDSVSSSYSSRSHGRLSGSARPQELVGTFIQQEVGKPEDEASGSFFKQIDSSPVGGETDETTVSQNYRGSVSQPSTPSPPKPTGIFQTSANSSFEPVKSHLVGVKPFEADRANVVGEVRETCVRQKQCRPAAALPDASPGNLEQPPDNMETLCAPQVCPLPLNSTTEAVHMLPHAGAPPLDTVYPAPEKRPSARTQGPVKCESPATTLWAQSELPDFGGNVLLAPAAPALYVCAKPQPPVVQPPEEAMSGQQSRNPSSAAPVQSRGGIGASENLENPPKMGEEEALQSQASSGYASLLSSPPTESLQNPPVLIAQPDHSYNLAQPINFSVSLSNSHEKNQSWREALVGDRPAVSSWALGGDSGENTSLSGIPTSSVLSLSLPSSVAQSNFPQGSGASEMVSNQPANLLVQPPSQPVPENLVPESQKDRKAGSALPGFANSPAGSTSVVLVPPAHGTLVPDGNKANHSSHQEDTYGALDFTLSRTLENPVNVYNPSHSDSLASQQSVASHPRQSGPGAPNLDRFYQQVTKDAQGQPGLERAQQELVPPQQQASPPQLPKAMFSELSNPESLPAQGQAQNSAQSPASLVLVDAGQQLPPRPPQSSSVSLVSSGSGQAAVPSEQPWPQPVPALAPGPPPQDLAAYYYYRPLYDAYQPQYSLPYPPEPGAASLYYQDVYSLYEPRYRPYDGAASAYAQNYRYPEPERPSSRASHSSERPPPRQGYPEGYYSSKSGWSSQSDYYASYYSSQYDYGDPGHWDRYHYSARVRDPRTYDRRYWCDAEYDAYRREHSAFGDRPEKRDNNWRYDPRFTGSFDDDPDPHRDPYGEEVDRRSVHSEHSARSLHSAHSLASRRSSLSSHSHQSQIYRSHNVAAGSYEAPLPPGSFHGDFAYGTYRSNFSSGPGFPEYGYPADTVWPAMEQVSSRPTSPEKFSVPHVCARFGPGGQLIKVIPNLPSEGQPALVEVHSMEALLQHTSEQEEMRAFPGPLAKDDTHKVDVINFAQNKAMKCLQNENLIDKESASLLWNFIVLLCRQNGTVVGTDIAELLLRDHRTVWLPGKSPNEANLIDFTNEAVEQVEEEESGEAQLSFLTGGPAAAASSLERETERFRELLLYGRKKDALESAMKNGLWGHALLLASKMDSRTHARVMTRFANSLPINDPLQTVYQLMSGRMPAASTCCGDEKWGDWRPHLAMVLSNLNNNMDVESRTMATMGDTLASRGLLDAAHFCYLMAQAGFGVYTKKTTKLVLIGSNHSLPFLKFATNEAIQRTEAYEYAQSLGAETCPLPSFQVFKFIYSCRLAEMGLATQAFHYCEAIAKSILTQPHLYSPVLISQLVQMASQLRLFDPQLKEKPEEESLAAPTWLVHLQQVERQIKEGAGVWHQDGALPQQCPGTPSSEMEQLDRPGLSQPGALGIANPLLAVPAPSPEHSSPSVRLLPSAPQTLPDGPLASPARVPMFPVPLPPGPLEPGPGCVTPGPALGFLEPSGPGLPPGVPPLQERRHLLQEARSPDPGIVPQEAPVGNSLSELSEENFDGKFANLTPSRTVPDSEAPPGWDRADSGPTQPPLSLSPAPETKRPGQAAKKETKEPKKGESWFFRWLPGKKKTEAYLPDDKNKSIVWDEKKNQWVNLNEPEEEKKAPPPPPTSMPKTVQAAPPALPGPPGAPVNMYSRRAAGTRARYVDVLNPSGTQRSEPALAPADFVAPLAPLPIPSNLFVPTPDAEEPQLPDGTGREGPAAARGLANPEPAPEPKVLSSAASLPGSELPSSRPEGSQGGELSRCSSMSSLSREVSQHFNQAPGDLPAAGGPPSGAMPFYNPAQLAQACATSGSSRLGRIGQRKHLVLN
UniProt Q9NSI8: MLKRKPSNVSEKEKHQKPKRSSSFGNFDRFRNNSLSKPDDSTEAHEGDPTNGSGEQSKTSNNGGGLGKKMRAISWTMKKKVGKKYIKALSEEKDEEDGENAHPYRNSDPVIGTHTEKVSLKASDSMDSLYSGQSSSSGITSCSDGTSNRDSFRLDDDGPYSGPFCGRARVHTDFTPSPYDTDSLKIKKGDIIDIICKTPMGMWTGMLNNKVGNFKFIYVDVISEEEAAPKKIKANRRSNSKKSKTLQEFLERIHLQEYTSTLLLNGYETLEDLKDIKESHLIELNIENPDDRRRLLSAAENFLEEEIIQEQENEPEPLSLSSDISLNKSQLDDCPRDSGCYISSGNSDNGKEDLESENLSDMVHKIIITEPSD

Columns and labels:
Test in all cases: log2 fold change, soluble protein after heating vs DMSO (PISA); higher = thermal stabilisation; K562 cells, 10 uM, 30 min; active = over 0.2 and 3.5 SD of the protein, either way, in both replicates (recomputed)
IRAK-1-4 Inhibitor I = compound: C1COCCN1CCN2C3=CC=CC=C3N=C2NC(=O)C4=CC(=CC=C4)[N+](=O)[O-] [IRAK-1-4 Inhibitor I]
Outline: (§1)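 Quantification of soluble protein used TMTpro 16plex LC-MS/MS, with channel sums equalised. Samples were the supernatant after 21,000xg for 90 min of pooled aliquots from K562 cells (2×10^6 cells/mL) treated with 10 μM compound for 30 min, heated for 3 min over 48°C-58°C, and extracted in PBS with 0.5% NP-40 at 4°C. Values, from duplicates, describe thermal stability against control samples on a log2 fold-change scale.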

ibrutinib = compound: C=CC(=O)N1CCC[C@@H](n2nc(-c3ccc(Oc4ccccc4)cc3)c3c(N)ncnc32)C1 [ibrutinib]
Outline: as §1

[1] = compound: CC(=O)c1cnc2ccc(-c3cc(Cl)c(O)c(Cl)c3)nc2c1N[C@H]1CC[C@H](CN(C)C)CC1
Outline: as §1

ralimetinib = compound: CC(C)(C)Cn1c(N)nc2ccc(-c3[nH]c(C(C)(C)C)nc3-c3ccc(F)cc3)nc21 [ralimetinib]
Outline: as §1

[2] = compound: CC(C)(O)CC(=O)NCCn1ccc2ncnc(Nc3ccc(Oc4cccc(C(F)(F)F)c4)c(Cl)c3)c21
Outline: as §1

[3] = compound: CC(C)C1=C2N=C(C=C(N2N=C1)NCC3=CC=CC=C3)NCCCCCCN
Outline: as §1

[4] = compound: CC(C)C[C@@H](C=O)NC(=O)[C@H](CC(C)C)NC(=O)[C@H](CC(C)C)NC(=O)OCc1ccccc1
Outline: as §1

pinometostat = compound: CC(C)N(C[C@H]1O[C@@H](n2cnc3c(N)ncnc32)[C@H](O)[C@@H]1O)[C@H]1C[C@@H](CCc2nc3cc(C(C)(C)C)ccc3[nH]2)C1 [pinometostat]
Outline: as §1

[5] = compound: CC1=C(C2=C(C=C1)C(=O)C3=CC=CC=C3N2CCCN)C
Outline: as §1

[6] = compound: CC1=C(C=C(C=C1)NC(=O)C2=CC(=CC=C2)C(C)(C)C#N)NC3=CC4=C(C=C3)N=CN(C4=O)C
Outline: as §1

[7] = compound: CC1=C(C=C(C=C1)NC(=O)C2=CC(=CC=C2)N(C)C)NC(=O)C3=CC=C(C=C3)O
Outline: as §1

[8] = compound: CC1=CC=C(C=C1)SC2=C3C=C(SC3=CN=C2)C(=O)N
Outline: as §1

[9] = compound: CC1=NC(=CC=C1)C2=C(N=C(N2)C(C)(C)C)C3=CC4=NC=CN=C4C=C3
Outline: as §1

Nexturastat A = compound: CCCCN(Cc1ccc(C(=O)NO)cc1)C(=O)Nc1ccccc1 [Nexturastat A]
Outline: as §1

vemurafenib = compound: CCCS(=O)(=O)Nc1ccc(F)c(C(=O)c2c[nH]c3ncc(-c4ccc(Cl)cc4)cc23)c1F [vemurafenib]
Outline: as §1

[10] = compound: CCCS(=O)(=O)Nc1ccc(F)c(C(=O)c2c[nH]c3ncc(Cl)cc23)c1F
Outline: as §1

[11] = compound: CCCc1cc(C)[nH]c(=O)c1CNC(=O)c1cc(-c2ccnc(N3CCN(C)CC3)c2)cc2c1cnn2C(C)C
Outline: as §1

givinostat = compound: CCN(CC)Cc1ccc2cc(COC(=O)Nc3ccc(C(=O)NO)cc3)ccc2c1 [givinostat]
Outline: as §1

barasertib = compound: CCN(CCCOc1ccc2c(Nc3cc(CC(=O)Nc4cccc(F)c4)[nH]n3)ncnc2c1)CCOP(=O)(O)O [barasertib]
Outline: as §1

[12] = compound: CC1=C(C(CC(=O)N1)C2=CC=C(C=C2)C(F)(F)F)C(=O)NC3=C(C=C4C(=C3)C=NN4)F
Outline: as §1

| Target | log2 fold change (IRAK-1-4 Inhibitor I) | log2 fold change (ibrutinib) | log2 fold change [1] | log2 fold change (ralimetinib) | log2 fold change [2] | log2 fold change [3] | log2 fold change [4] | log2 fold change (pinometostat) | log2 fold change [5] | log2 fold change [6] | log2 fold change [7] | log2 fold change [8] | log2 fold change [9] | log2 fold change (Nexturastat A) | log2 fold change (vemurafenib) | log2 fold change [10] | log2 fold change [11] | log2 fold change (givinostat) | log2 fold change (barasertib) | log2 fold change [12] |
| --- | --- | --- | --- | --- | --- | --- | --- | --- | --- | --- | --- | --- | --- | --- | --- | --- | --- | --- | --- | --- |
| RSPRY1 (UniProt Q96DX4) | inactive: 0.018 | inactive: 0.027 | inactive: 0.02 | inactive: -0.019 | inactive: -0.036 | inactive: 0 | inactive: 0.079 | inactive: -0.048 | inactive: -0.066 | inactive: 0.106 | inactive: -0.026 | inactive: -0.183 | inactive: -0.035 | inactive: -0.021 | inactive: 0.034 | inactive: -0.031 | inactive: -0.107 | inactive: -0.007 | inactive: -0.004 | – |
| SDHAF2 (UniProt Q9NX18) | inactive: 0.013 | inactive: -0.004 | inactive: 0.124 | inactive: -0.044 | inactive: -0.011 | inactive: -0.042 | inactive: 0.084 | inactive: -0.014 | inactive: -0.01 | inactive: -0.047 | inactive: 0.026 | inactive: 0.079 | inactive: 0.019 | inactive: 0.076 | inactive: 0.028 | inactive: -0.024 | inactive: -0.06 | inactive: 0.036 | inactive: 0.005 | – |
| SCAMP2 (UniProt H3BUB6) | inactive: 0.078 | inactive: 0.103 | inactive: -0.171 | inactive: -0.278 | inactive: 0.102 | inactive: -0.055 | inactive: 0.192 | inactive: 0.053 | inactive: 0.059 | inactive: -0.349 | inactive: 0.043 | inactive: -0.166 | inactive: -0.1 | inactive: 0.12 | inactive: -0.266 | inactive: -0.335 | inactive: -0.232 | inactive: -0.024 | inactive: 0.034 | – |
| SCAF11 (UniProt Q99590) | inactive: 0.076 | inactive: 0.099 | active: 0.714 | inactive: 0.166 | inactive: -0.084 | inactive: 0.134 | inactive: 0.213 | inactive: 0.157 | inactive: 0.112 | inactive: -0.089 | inactive: 0.154 | inactive: -0.079 | inactive: -0.275 | inactive: 0.003 | inactive: -0.158 | inactive: -0.031 | inactive: 0.035 | inactive: -0.034 | inactive: 0.165 | – |
| SEC31A (UniProt O94979) | inactive: -0.076 | inactive: -0.11 | inactive: 0.005 | inactive: 0.028 | inactive: -0.054 | inactive: -0.008 | inactive: 0.033 | inactive: 0.071 | inactive: 0.095 | inactive: -0.053 | inactive: -0.052 | inactive: 0.015 | inactive: 0.019 | inactive: 0.102 | inactive: 0.054 | inactive: 0.064 | inactive: -0.032 | inactive: 0.098 | inactive: 0.052 | – |
| S100A6 (UniProt P06703) | inactive: -0.018 | inactive: 0.048 | inactive: -0.027 | inactive: 0.042 | inactive: -0.056 | inactive: -0.006 | inactive: 0.026 | inactive: -0.023 | inactive: 0.108 | inactive: 0.075 | inactive: -0.146 | inactive: 0.046 | inactive: 0.013 | inactive: -0.242 | – | inactive: -0.071 | inactive: -0.021 | inactive: -0.026 | inactive: 0.018 | inactive: -0.002 |
| SAFB2 (UniProt Q14151) | inactive: -0.065 | inactive: -0.012 | inactive: 0.026 | inactive: 0.037 | inactive: 0.165 | inactive: 0.042 | inactive: 0.049 | inactive: 0.05 | inactive: -0.074 | inactive: 0.011 | inactive: 0.068 | inactive: -0.024 | inactive: 0.011 | inactive: 0.203 | inactive: -0.048 | inactive: -0.038 | inactive: 0.097 | inactive: -0.011 | inactive: -0.029 | – |
| SEC24A (UniProt O95486) | inactive: -0.038 | inactive: -0.017 | inactive: -0.013 | inactive: 0.018 | inactive: -0.066 | inactive: -0.057 | inactive: -0.005 | inactive: 0.005 | inactive: 0.019 | inactive: 0.025 | inactive: -0.089 | inactive: 0 | inactive: 0.012 | inactive: -0.04 | inactive: 0.023 | inactive: 0.051 | inactive: 0.08 | inactive: 0.072 | inactive: 0.006 | – |
| S100A13 (UniProt Q99584) | inactive: 0.046 | inactive: -0.012 | inactive: -0.028 | inactive: -0.083 | inactive: -0.031 | inactive: -0.057 | inactive: -0.039 | inactive: -0.033 | inactive: -0.031 | inactive: -0.026 | inactive: 0.013 | inactive: 0.032 | inactive: 0.059 | inactive: -0.14 | inactive: -0.018 | inactive: 0.006 | inactive: -0.042 | inactive: 0.028 | inactive: 0.007 | inactive: 0.02 |
| SEC23B (UniProt Q15437) | inactive: -0.01 | inactive: 0.001 | inactive: -0.014 | inactive: 0.022 | inactive: -0.02 | inactive: 0.01 | inactive: -0.018 | inactive: -0.031 | inactive: 0.016 | inactive: 0.003 | inactive: -0.028 | inactive: 0.008 | inactive: 0.04 | inactive: 0.006 | inactive: 0.033 | inactive: 0.033 | inactive: 0.005 | inactive: 0.005 | inactive: 0.017 | inactive: 0.006 |
| SCNM1 (UniProt Q9BWG6) | inactive: -0.023 | inactive: -0.114 | inactive: -0.032 | inactive: 0.028 | inactive: 0.092 | inactive: 0.06 | inactive: 0.231 | inactive: -0.091 | inactive: 0.055 | inactive: -0.102 | inactive: 0.141 | inactive: 0.029 | inactive: -0.032 | inactive: -0.178 | – | inactive: 0.04 | inactive: 0.039 | inactive: -0.004 | inactive: -0.14 | inactive: -0.036 |
| SEC23IP (UniProt Q9Y6Y8) | inactive: -0.007 | inactive: -0.023 | inactive: -0.048 | inactive: -0.004 | inactive: -0.119 | active: -0.252 | inactive: 0.006 | inactive: 0.032 | inactive: -0.011 | inactive: 0.016 | inactive: 0.041 | inactive: 0.041 | inactive: 0.012 | inactive: 0.022 | inactive: 0.051 | inactive: 0.056 | inactive: 0.024 | inactive: 0.047 | inactive: 0.016 | – |
| RSL1D1 (UniProt O76021) | inactive: -0.071 | inactive: -0.011 | inactive: 0.22 | inactive: 0.105 | inactive: 0.212 | inactive: 0.538 | inactive: 0.076 | inactive: 0.393 | inactive: -0.299 | inactive: -0.019 | inactive: 0.039 | inactive: -0.155 | inactive: -0.148 | inactive: 0.256 | inactive: -0.126 | inactive: -0.137 | inactive: 0.15 | inactive: 0.087 | inactive: -0.167 | – |
| SCPEP1 (UniProt Q9HB40) | inactive: 0.044 | inactive: 0.072 | inactive: -0.008 | inactive: -0.005 | inactive: -0.038 | active: -0.5 | inactive: 0.007 | inactive: -0.032 | inactive: 0.073 | inactive: -0.003 | inactive: 0.016 | inactive: 0.05 | inactive: 0.022 | inactive: -0.035 | inactive: 0.002 | inactive: 0.013 | inactive: -0.028 | inactive: -0.031 | inactive: 0.012 | – |
| SDHC (UniProt Q99643) | inactive: 0.095 | inactive: 0.004 | inactive: 0.025 | inactive: -0.055 | inactive: -0.185 | inactive: 0.012 | inactive: -0.286 | inactive: -0.086 | inactive: 0.108 | inactive: 0.01 | inactive: 0.023 | inactive: -0.041 | inactive: 0.023 | inactive: -0.217 | inactive: 0.128 | inactive: 0.038 | inactive: -0.122 | inactive: -0.108 | inactive: -0.04 | – |
| SEC16A isoform 5 (UniProt O15027) | inactive: -0.136 | inactive: -0.062 | inactive: -0.069 | inactive: 0.172 | inactive: -0.177 | active: -0.282 | inactive: 0.046 | inactive: 0.097 | inactive: 0.025 | inactive: -0.079 | inactive: -0.042 | inactive: 0.036 | inactive: -0.001 | inactive: 0.044 | inactive: 0.035 | inactive: -0.031 | inactive: 0.061 | inactive: 0.09 | inactive: 0.043 | – |
| SAMSN1 isoform 3 (UniProt Q9NSI8) | inactive: 0.028 | inactive: -0.021 | inactive: -0.125 | inactive: -0.016 | inactive: -0.034 | inactive: -0.095 | inactive: 0.041 | inactive: 0.014 | inactive: 0.008 | inactive: 0.014 | inactive: -0.011 | inactive: 0.029 | inactive: 0.017 | inactive: -0.027 | inactive: -0.001 | inactive: 0.029 | inactive: 0 | inactive: 0.02 | inactive: 0.042 | – |

Single entries from above:
Value for SAMSN1 isoform 3 (UniProt Q9NSI8) under log2 fold change (ibrutinib): inactive: -0.021
Value for RSL1D1 (UniProt O76021) under log2 fold change [4]: inactive: 0.076
